Results deposited as PubChem BioAssay AID504808 (Drosophila RNAi Screening Center, 2011)
Screen: 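Fly genes required to hold E2F transcription in check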 (primary screen). Cells: Drosophila S2 cells. Knock-down reagent: long dsRNA against Drosophila genes. Detection: 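Dual luciferase plate measurements; E2F-specific signal taken as firefly over Renilla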. Direction: E2F firefly: higher = more E2F reporter activity; Renilla normaliser: higher = more normaliser reporter signal. Hit rule: 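a knock-down counted as active when the firefly/Renilla E2F signal rose above 50%, a threshold chosen arbitrarily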.
The deposit covers about 21,000 reagents; below is an unselected part of those that have a named target and a result. Of all reagents, 18 (0.084%) were called active. 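Raw counts without plate normalisation, one of two replicates; the ratio scores behind the calls were not deposited.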 No sequences are given here. Not stated in the record: the amount of reagent, the time to read-out.

gene	dsRNA	E2F firefly, rep 1	Renilla normaliser, rep 1	Call
Snap25	DRSC21228	1.34e5	5818	inactive
Snap25	DRSC21236	76595	4937	inactive
Fum1	DRSC18344	7870	764	inactive
unc-119	DRSC18846	42650	3931	inactive
Cap-H2	DRSC14908	75797	3249	inactive
Ubc6	DRSC12370	70451	3384	inactive
CG9411	DRSC20184	8838	680	inactive
CG14717	DRSC14940	1.49e5	7332	inactive
Sfmbt	DRSC02552	99031	199	active
Tsp	DRSC02144	1.05e5	3890	inactive
Tsp	DRSC02145	1.46e5	5103	inactive
Adgf-C	DRSC16473	93462	6971	inactive
CG1979	DRSC12495	74226	3585	inactive
Osi20	DRSC12568	1.33e5	5261	inactive
mbo	DRSC16123	70393	3794	inactive
Alh	DRSC12447	56021	3710	inactive
Alh	DRSC12487	1.23e5	6107	inactive
Alh	DRSC12488	1.43e5	6979	inactive
CG34330	DRSC20043	1.45e5	7927	inactive
ChLD3	DRSC02640	1.07e5	4425	inactive
CG14262	DRSC14757	1.19e5	5909	inactive

Already shown: entries from further up.
gene	dsRNA	E2F firefly, rep 1	Renilla normaliser, rep 1	Call
CG14717	DRSC14940	1.49e5	7332	inactive
Sfmbt	DRSC02552	99031	199	active
Tsp	DRSC02144	1.05e5	3890	inactive
Tsp	DRSC02145	1.46e5	5103	inactive

The results go on.
gene	dsRNA	E2F firefly, rep 1	Renilla normaliser, rep 1	Call
CG18135	DRSC10295	81751	3654	inactive
Vm34Ca	DRSC03475	91775	4743	inactive
CG7110	DRSC03011	78597	3185	inactive
CG7110	DRSC03012	96994	4313	inactive
cindr	DRSC14126	1919	864	inactive
cindr	DRSC14298	1.00e5	5878	inactive
natalisin	DRSC14966	77169	4573	inactive
natalisin	DRSC14967	1.23e5	6009	inactive
CG14294	DRSC14774	1.36e5	8436	inactive
SMSr	DRSC10998	60964	3170	inactive
SMSr	DRSC10999	96186	3892	inactive
CG4658	DRSC02768	1.46e5	5132	inactive
Ssl	DRSC04657	1.05e5	3578	inactive
